A short description of this assay: qHTS Assay for Lipid Storage Modulators in Drosophila S3 Cells.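 For cell number change: cells counted by Cell Tracker Red CMTPX staining in the red channel.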 The following applies: BODIPY lipid droplet fluorescence, 18-24 h; for cell number change: measured here: cell count max response, cells fed with added oleic acid. The method in brief:
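Drosophila S3 cells got compounds at several concentrations plus oleic acid (400 uM solution). Laser-scanning cytometry with 488 nm excitation read lipid droplets at 500-530 nm and cells at 575-640 nm. Percent activity was relative to 20 uM Triacsin C.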

[1] abbreviates: measured here: cell number channel AC50, cells fed with added oleic acid.
Setting [2] is: measured here: lipid fluorescence (Fed channel) AC50, cells fed with added oleic acid.

The structures appear in SMILES notation. The list shows a part of the results. Shown are side measurements of this screen, not its main read-out; they come without a call. The list favours compounds with an active or inconclusive main result. The note in brackets gives the kind of curve behind each potency; many fits are weak.

Turning to `CSc1ccc(/C=C/C(=O)OCC(=O)N(C)CCC#N)cc1`, the cell number change was 50.4%. For the same compound, the AC50 under setting [1] was 2.59 µM [rising, full curve].
As for `COc1ccc(NC(=O)C(CC(C)C)NC(=O)c2ccccc2C)cn1` (configuration not stated), the cell number change is -18.6%. Under setting [1], the AC50 was 2.59 µM [falling, single point]. In addition, under setting [2], the AC50 is 0.146 µM [falling, full curve, poor fit].
As for `Cc1cc(C)cc(NC(=O)CSc2n[nH]c(-c3cccnc3)n2)c1`, the cell number change is -5.71%.
The same measure, in the same setting: under `O=C(O)c1cc2c(ccc3ccccc32)oc1=O` stands 24.6%; under `CCN(CC(=O)Nc1ccc(NC(C)=O)cc1)C(=O)CCN1C(=O)C2CC=CCC2C1=O` (configuration not stated), 26.5%.
In the case of `O=C(Nc1ccc(OC(F)(F)F)cc1)c1ccc(S(=O)(=O)N2CCOCC2)o1`, the cell number change turned out to be 22.6%. For the same compound, the AC50 under setting [2] is 0.116 µM [rising, full curve, poor fit].
`CC1CN(c2ncc(/C=N/NC(=O)c3ccccc3O)s2)CC(C)O1` (configuration not stated): the cell number change is -17.3%. In addition, the AC50 under setting [1] was 1.46 µM [falling, partial curve, poor fit]. For the same compound, the AC50 under setting [2] is 29.1 µM [falling, single point].
With `O=c1[nH]c(C2CCN(S(=O)(=O)c3ccc4c(c3)OCCO4)CC2)nc2c1nnn2Cc1c(F)cccc1Cl`, the cell number change is 15.8%. Moreover, the AC50 under setting [2] was 1.3 µM [rising, single point].
On to `CN(C)C(CNC(=O)c1cc(S(=O)(=O)N(C)Cc2ccccc2)ccc1Cl)c1ccco1` (configuration not stated), for which the cell number change was 31.7%. Besides, the AC50 under setting [1] was 18.4 µM [rising, single point]. Moreover, the AC50 under setting [2] is 16.4 µM [rising, partial curve].
Take `CCN(CC)c1nc(-c2cccc(OC)c2O)nc2ccccc12`: the AC50 is, setting by setting: under setting [1], 0.58 µM [rising, single point]; under setting [2], 0.58 µM [rising, single point].
Take `CCOC(=O)c1c(NC=O)sc2c1CCC2`: the cell number change was 1.85%.
For `Cc1ccc(OCC(=O)NCc2ccccn2)c(Br)c1`, the cell number change was -3.07%. Further, under setting [2], the AC50 is 0.461 µM [rising, full curve, poor fit].
Take `CC1=C(C)CS(=O)N(c2ccc(S(N)(=O)=O)cc2)C1` (configuration not stated): the cell number change is -35.1%. Under setting [1], the AC50 is 9.2 µM [falling, partial curve, poor fit]. Also, the AC50 under setting [2] was 16.4 µM [falling, partial curve].
Turning to `Cc1c(CCO)c(=O)n(C)n1C(=O)c1ccc(F)cc1`, the cell number change was -7.92%. In addition, the AC50 under setting [2] is 0.82 µM [rising, partial curve].
With `Cc1ccc(C2CCN(C(=O)Nc3ccccc3)C2)cc1` (configuration not stated), the cell number change is 3.08%. For the same compound, the half-maximal activity concentration (AC50) under setting [2] was 16.4 µM [falling, single point].
As to `Cc1nc2nc(CSc3ccc(Cl)cc3)cc(=O)n2[nH]1`, the AC50 was 2.91 µM [falling, partial curve] under setting [1] and 6.51 µM [falling, single point] under setting [2].
Regarding `O=C(NNS(=O)(=O)c1ccc(F)cc1)C1CC(c2cccnc2)=NO1` (configuration not stated), the AC50 under setting [2] was 6.51 µM [falling, single point].
Consider `Cc1cc(C)c(C)c(S(=O)(=O)Nc2ccc3cn[nH]c3c2)c1C`, for which the cell number change was -13.6%. For the same compound, the AC50 under setting [2] was 29.1 µM [falling, single point].
On to `COc1ccccc1/C=N/NC(=O)CNC(=O)c1ccc(S(=O)(=O)N2CCCC2)cc1`, for which the cell number change is 9.11%. Moreover, the AC50 under setting [1] is 0.58 µM [falling, single point].
For the compound `Cc1cccc(C(=O)OCC(=O)N(C)C(c2ccccc2)c2ccccc2)c1[N+](=O)[O-]`, the AC50 under setting [2] is 6.51 µM [falling, single point].
For `CN(Cc1ccc(Cl)cc1Cl)C(=O)c1cc(=O)c2ccccc2o1`, the cell number change is 15.4%. Besides, under setting [2], the AC50 was 4.11 µM [falling, single point].
`O=C(N/N=C/c1ccc([N+](=O)[O-])cc1)c1cccc2cc[nH]c12`: the cell number change was 4.06%.
For the compound `c1ccc(Cn2nnc3c(N4CCCCCC4)ncnc32)cc1`, the AC50 under setting [2] was 20.6 µM [rising, single point].
As for `Cc1cc(NC(=O)CCC(=O)N(CCC(C)C)C(C(=O)NCC2CCCO2)c2ccccc2C)no1` (configuration not stated), the cell number change was 20.8%.
For `Oc1ccccc1/C=N/Nc1ccnc(SCc2ccccc2)n1`, the cell number change turned out to be 19.7%. Besides, the AC50 under setting [1] is 6.51 µM [rising, single point]. Moreover, the concentration at half-maximal activity (AC50) under setting [2] was 0.731 µM [falling, partial curve].
As for `CCC1(c2ccccc2)NC(=O)N(CC(=O)Nc2ccc(S(N)(=O)=O)cc2)C1=O` (configuration not stated), under setting [1], the AC50 was 6.51 µM [rising, single point].
Take `Cc1cccc(-c2nc3cc(NC(=O)C4CCCO4)ccc3o2)c1` (configuration not stated): the cell number change is -2.41%. For the same compound, the AC50 under setting [2] was 3.66 µM [rising, partial curve].
In the case of `O=C(CCN1CCN(CC(=O)Nc2ccccc2F)CC1)Nc1ccccc1F`, the cell number change is -34.9%. Also, the AC50 under setting [1] was 0.184 µM [falling, full curve].
Consider `C=CCn1c(SCC(=O)N2CC(=O)Nc3ccccc32)nc2scc(-c3ccccc3)c2c1=O`, for which the cell number change is -51.6%. The AC50 under setting [1] was 18.4 µM [falling, single point].
Take `COCCn1c(=O)c2c(nc3n2CCCN3Cc2ccccc2)n(C)c1=O`: under setting [2], the AC50 was 23.1 µM [rising, single point].
Take `COc1ccccc1NC(=O)Cn1c(=O)oc2cc(S(=O)(=O)N3CCCC3)ccc21`: the cell number change came out at 15.3%.
Same read-out and setting: under `CCN1CCN(C(=S)NC(=O)/C=C/c2cccs2)CC1` stands 1.22%.
For `O=C(N/N=C/c1ccoc1)c1ccc(Br)cc1`, the cell number change was determined as 0.296%. Further, under setting [2], the AC50 is 0.355 µM [falling, full curve, poor fit].
`Cc1ccc(NC(=O)c2nc[nH]c2C(=O)N(C)Cc2ccccc2)cc1`: the cell number change was -32.9%. Besides, the AC50 under setting [1] was 29.1 µM [falling, partial curve, poor fit]. Further, the AC50 under setting [2] was 23.1 µM [falling, partial curve, poor fit].
For `CCCN(C(=O)c1c(CC)noc1C)c1c(N)n(Cc2ccccc2)c(=O)[nH]c1=O`, the cell number change was -4.75%. Also, the AC50 under setting [2] was 0.731 µM [rising, single point].
On to `Cc1cccc(-c2nc(NCCCN3CCOCC3)c3ccccc3n2)c1`, for which the cell number change was determined as 57.5%. In addition, the AC50 under setting [1] was 1.64 µM [rising, full curve, poor fit]. In addition, under setting [2], the AC50 was 6.51 µM [rising, single point].
As to `O=C(Nc1cccc(Cl)c1)C1CCN(C(=O)c2cccs2)CC1`, the cell number change was -1.26%. Also, under setting [2], the AC50 was 20.6 µM [rising, single point].
Consider `Cc1ccc(OCCOCCn2cnc3ccccc3c2=O)cc1C`, for which the cell number change is 31.5%. Also, the AC50 under setting [2] is 29.1 µM [rising, single point].
As for `CCOc1ccc(C(=S)NC2CCCCC2)cc1OCC`, the cell number change was -20.4%. For the same compound, the AC50 under setting [2] is 29.1 µM [falling, single point].

The values are drawn from PubChem BioAssay AID2685 (National Center for Advancing Translational Sciences (NCATS), 2010).
